The text below walks through data of publication PMC10352378.

Protein sequences, listed by entry. Tags and fused reporters are not part of them.
UniProt Q9Y490: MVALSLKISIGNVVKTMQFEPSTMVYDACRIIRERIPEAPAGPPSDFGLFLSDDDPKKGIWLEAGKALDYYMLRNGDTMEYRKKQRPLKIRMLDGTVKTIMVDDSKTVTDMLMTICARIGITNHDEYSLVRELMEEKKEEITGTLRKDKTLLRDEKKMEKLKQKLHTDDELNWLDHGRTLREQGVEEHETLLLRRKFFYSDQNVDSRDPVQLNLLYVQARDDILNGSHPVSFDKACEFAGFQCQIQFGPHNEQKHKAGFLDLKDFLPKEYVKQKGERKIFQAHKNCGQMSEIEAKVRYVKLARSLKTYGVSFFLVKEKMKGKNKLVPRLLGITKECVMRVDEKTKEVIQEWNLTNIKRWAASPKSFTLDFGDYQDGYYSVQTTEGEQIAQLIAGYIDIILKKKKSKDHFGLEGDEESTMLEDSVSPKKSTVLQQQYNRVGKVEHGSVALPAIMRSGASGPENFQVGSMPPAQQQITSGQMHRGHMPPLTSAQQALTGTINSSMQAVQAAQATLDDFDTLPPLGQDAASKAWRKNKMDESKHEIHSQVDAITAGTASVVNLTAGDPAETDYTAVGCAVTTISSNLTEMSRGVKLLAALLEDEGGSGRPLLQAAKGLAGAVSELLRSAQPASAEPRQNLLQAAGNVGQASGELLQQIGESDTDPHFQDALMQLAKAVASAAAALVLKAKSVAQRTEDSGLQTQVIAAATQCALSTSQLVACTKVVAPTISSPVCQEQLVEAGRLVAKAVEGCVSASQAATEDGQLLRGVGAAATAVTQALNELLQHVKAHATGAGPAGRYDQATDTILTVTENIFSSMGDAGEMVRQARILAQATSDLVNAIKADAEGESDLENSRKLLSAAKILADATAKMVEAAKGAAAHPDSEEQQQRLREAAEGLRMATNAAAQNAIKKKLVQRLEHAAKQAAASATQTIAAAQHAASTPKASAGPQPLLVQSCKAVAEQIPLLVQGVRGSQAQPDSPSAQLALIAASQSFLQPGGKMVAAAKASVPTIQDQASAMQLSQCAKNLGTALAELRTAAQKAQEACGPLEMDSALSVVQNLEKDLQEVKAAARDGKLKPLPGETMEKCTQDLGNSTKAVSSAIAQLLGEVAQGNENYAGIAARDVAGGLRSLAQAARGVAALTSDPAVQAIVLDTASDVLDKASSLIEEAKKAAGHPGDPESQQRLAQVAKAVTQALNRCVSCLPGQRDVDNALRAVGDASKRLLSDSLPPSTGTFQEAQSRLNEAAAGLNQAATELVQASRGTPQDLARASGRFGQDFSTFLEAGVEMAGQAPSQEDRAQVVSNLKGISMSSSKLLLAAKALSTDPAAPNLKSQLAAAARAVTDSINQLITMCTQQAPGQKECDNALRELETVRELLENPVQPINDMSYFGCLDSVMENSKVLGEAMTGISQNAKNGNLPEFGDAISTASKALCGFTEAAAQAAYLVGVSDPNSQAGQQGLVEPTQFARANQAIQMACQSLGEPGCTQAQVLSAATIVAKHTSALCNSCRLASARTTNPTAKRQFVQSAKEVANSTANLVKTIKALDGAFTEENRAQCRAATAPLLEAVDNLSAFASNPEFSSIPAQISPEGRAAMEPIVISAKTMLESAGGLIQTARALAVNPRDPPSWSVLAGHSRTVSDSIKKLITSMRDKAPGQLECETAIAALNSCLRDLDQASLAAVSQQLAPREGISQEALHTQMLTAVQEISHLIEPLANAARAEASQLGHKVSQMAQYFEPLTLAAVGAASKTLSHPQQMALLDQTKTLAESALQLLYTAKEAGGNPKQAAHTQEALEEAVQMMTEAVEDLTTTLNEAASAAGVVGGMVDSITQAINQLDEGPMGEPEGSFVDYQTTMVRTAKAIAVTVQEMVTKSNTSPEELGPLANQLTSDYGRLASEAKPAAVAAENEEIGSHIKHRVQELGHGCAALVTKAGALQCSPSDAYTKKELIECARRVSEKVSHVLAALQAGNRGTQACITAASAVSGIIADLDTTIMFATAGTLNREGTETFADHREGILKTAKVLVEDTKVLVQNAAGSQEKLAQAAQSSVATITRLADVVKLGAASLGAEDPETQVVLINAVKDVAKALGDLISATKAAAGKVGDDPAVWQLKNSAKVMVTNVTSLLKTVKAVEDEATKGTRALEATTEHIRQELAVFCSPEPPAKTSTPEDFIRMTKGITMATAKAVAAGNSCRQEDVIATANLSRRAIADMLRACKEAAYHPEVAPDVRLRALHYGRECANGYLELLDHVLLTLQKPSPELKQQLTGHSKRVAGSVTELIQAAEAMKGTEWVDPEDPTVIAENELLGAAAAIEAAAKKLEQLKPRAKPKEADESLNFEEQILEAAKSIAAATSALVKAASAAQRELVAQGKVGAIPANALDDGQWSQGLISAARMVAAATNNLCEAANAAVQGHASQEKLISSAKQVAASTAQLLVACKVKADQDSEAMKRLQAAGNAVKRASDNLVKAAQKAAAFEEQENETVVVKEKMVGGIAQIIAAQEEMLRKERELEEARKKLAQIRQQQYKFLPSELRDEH
UniProt P19474: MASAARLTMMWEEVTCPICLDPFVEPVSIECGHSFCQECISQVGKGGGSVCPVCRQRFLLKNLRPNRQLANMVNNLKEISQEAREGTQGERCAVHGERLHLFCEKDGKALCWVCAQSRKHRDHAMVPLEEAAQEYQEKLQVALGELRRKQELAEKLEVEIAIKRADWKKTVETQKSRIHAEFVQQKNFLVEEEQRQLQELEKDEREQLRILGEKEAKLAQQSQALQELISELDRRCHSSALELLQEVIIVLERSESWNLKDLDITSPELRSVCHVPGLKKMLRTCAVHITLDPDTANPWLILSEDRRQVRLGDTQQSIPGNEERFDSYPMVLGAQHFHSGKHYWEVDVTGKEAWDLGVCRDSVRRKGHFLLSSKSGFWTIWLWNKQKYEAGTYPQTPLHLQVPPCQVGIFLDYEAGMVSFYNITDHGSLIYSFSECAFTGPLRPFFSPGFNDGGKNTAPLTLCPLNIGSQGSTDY

Assay [1] concerns the target talin1-Myc (UniProt Q9Y490). The assay is described as follows: co-IP; HEK293T cells with talin1-Myc, Flag-TRIM21 and overexpressed HA-BCKDK; IP with anti-Myc antibody, IB for HA-BCKDK and Flag-TRIM21.
Assay [2] has as its target talin1-Myc (UniProt Q9Y490). The assay is described as follows: co-IP; talin1-Myc and TRIM21-Flag co-expressed in HEK293T cells; IP with anti-Myc, blot for Flag.

No constants are given. Whether binding was seen depends on the method and setting. In cells and extracts the contact can be indirect. Some binding calls cover weakened binding; strength is not graded here.

For the substance “TRIM21-Flag (from UniProt P19474 1-475) (enzyme)”, the binding result with talin1-Myc [1] and with talin1-Myc [2] was “binds” throughout.
